The record followed here is paper PMC9168264.

The chains behind the UniProt entries cited, without tags or fusion partners. Residues count along the entry.
UniProt P0DTC8, residues 16-121: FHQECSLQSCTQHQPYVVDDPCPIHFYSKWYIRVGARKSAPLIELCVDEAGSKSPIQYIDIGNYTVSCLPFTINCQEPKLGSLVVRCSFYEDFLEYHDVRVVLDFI
UniProt P14625, residues 22-803: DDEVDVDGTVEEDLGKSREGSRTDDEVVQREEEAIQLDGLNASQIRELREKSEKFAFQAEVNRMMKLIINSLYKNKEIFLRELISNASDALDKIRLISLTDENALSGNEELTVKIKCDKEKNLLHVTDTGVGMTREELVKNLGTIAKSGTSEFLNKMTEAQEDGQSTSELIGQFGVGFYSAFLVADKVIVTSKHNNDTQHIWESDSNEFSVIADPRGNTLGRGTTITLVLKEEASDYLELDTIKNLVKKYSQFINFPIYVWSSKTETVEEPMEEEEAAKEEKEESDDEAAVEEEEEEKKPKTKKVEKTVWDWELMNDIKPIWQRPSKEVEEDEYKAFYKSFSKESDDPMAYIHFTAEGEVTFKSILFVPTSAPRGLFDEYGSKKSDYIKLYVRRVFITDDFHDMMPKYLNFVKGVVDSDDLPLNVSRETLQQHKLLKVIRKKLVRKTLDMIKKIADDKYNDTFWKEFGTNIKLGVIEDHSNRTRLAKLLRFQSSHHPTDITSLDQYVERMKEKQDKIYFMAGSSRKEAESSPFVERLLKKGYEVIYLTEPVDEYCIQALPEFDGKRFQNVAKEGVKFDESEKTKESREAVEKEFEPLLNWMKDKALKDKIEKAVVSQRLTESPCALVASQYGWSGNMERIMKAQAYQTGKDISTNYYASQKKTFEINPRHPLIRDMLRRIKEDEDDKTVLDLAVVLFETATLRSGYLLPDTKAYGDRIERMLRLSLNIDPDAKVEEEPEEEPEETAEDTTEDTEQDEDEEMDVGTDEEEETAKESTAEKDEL

Results are given in words; binding and its absence hold for the method and conditions named. In cells and extracts the contact can be indirect. Here binding means that the protein was enriched with, or labelled near, the bait; the list need not be complete.

This test has as its target SARS-CoV-2 ORF8L protein fused to EGFP (from pEGFP-ORF8L) (SARS-CoV-2) (UniProt P0DTC8). Put plainly: affinity purification with mass spectrometry.

On to HSP90B1 (from UniProt P14625 22-803), for which the binding result is reported as “binds”.
